Results deposited as PubChem BioAssay AID1259308 (NCATS, 2017)

Test: 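Knock-downs that increase output of a recombinant reporter protein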 (primary screen)
System: human HEK293 embryonic kidney cells stably expressing firefly luciferase (HEK-CMV-Luc2-Hygro)
Reagents: single siRNA against human genes, 0.8 pmol siRNA per well
Timing: 72 h
Read-out: 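Luciferase light (ONE-Glo) measured on one replicate plate set and viability (CellTiter-Glo) on the other, scaled to a negative control siRNA, with robust z-scores and luciferase per cell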
Direction: total luciferase, z-score and total luciferase, % of control: higher = more reporter protein produced; luciferase per cell, z-score: higher = more reporter output per viable cell; viable cells, % of control: higher = more viable cells
Call rule: 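Active when the median/MAD z-score for overall luciferase is greater than 3; a gene was taken forward for validation with new siRNAs if at least two of its three siRNAs passed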
Calls: active = raised luciferase; inactive = no rise
This is a random part of about 59,000 reagents tested. About 1,510 of them (2.6%) count as active. 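Calls use total luciferase alone and ignore viability, so some active siRNAs may act by altering cell number.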 Reagents against one gene are numbered here.

| gene knocked down | reagent | total luciferase, z-score | total luciferase, % of control | luciferase per cell, z-score | viable cells, % of control | call |
| --- | --- | --- | --- | --- | --- | --- |
| SOCS1 (GeneID 8651) | 1 | 0.563 | 93.1 | 0.232 | 97.9 | inactive |
| SOCS1 (GeneID 8651) | 2 | -1.55 | 51 | -2.44 | 108 | inactive |
| SOCS1 (GeneID 8651) | 3 | -1.07 | 60.6 | -0.451 | 76.3 | inactive |
| ZNRD2 (GeneID 10534) | 1 | -2.21 | 37.8 | -2.26 | 76.6 | inactive |
| ZNRD2 (GeneID 10534) | 2 | 0.918 | 100 | 0.963 | 86.8 | inactive |
| ZNRD2 (GeneID 10534) | 3 | -0.198 | 78 | 0.0177 | 86.7 | inactive |
| TAPBP (GeneID 6892) | 1 | -0.661 | 68.7 | -0.933 | 98.2 | inactive |
| TAPBP (GeneID 6892) | 2 | -2.74 | 27.4 | -2.83 | 64.5 | inactive |
| TAPBP (GeneID 6892) | 3 | -0.984 | 62.3 | -0.515 | 79.8 | inactive |
| ZBP1 (GeneID 81030) | 1 | 0.953 | 101 | 0.901 | 88.9 | inactive |
| ZBP1 (GeneID 81030) | 2 | -0.0416 | 81.1 | -0.0845 | 92.6 | inactive |
| ZBP1 (GeneID 81030) | 3 | 1.98 | 121 | 1.99 | 80.1 | inactive |
| FUT5 (GeneID 2527) | 1 | -0.61 | 69.8 | -1.21 | 107 | inactive |
| FUT5 (GeneID 2527) | 2 | 0.159 | 85 | 0.277 | 88.3 | inactive |
| FUT5 (GeneID 2527) | 3 | 0.0148 | 82.2 | 0.0157 | 91.5 | inactive |

The list goes on (3 carried over from the part before).
| gene knocked down | reagent | total luciferase, z-score | total luciferase, % of control | luciferase per cell, z-score | viable cells, % of control | call |
| --- | --- | --- | --- | --- | --- | --- |
| FUT5 (GeneID 2527) | 1 | -0.61 | 69.8 | -1.21 | 107 | inactive |
| FUT5 (GeneID 2527) | 2 | 0.159 | 85 | 0.277 | 88.3 | inactive |
| FUT5 (GeneID 2527) | 3 | 0.0148 | 82.2 | 0.0157 | 91.5 | inactive |
| MT1E (GeneID 4493) | 1 | -1.09 | 60.3 | -0.0513 | 68.3 | inactive |
| MT1E (GeneID 4493) | 2 | -2.53 | 31.5 | -2.77 | 73 | inactive |
| MT1E (GeneID 4493) | 3 | -0.809 | 65.8 | -1.05 | 96.9 | inactive |
| LDLRAD3 (GeneID 143458) | 1 | -0.193 | 78 | 0.0255 | 86.6 | inactive |
| LDLRAD3 (GeneID 143458) | 2 | 0.373 | 89.3 | -0.0536 | 101 | inactive |
| LDLRAD3 (GeneID 143458) | 3 | -0.416 | 73.6 | 0.00467 | 82.2 | inactive |
| PIGY (GeneID 84992) | 1 | -0.741 | 67.2 | -0.601 | 87.9 | inactive |
| PIGY (GeneID 84992) | 2 | 2.18 | 125 | 1.65 | 90.6 | inactive |
| PIGY (GeneID 84992) | 3 | -0.0765 | 80.4 | -0.137 | 93.1 | inactive |
